Literature values in patent US20040009220A1, “Rate-controlled beta blockers and process for forming same” (priority 2001, published 2004).

## CC(C)NCC(O)COc1ccc(CC(N)=O)cc1 (stereo not drawn) [Atenolol]
duodenum
  absorption profile, duodenum: 12%
ileum/colon combined
  absorption profile, ileum/colon combined: 38%
jejunum
  absorption profile, jejunum: 19%
